Paper doi:10.1101/2022.02.15.480489 (bioRxiv, 2022)
These are yes or no findings as the source states them, for the method shown.

Biological target: eAna2(ΔCC)-mNG (Ana2 lacking the central coiled-coil domain, aa195-229, with C-terminal mNG) (Drosophila melanogaster) (UniProt Q9XZ31)
Experiment: fluorescence correlation spectroscopy

- binding: no binding
B1: eAna2(ΔCC)-mNG (Ana2 lacking the central coiled-coil domain, aa195-229, with C-terminal mNG) (protein, UniProt Q9XZ31)
chain: MFVPETEDMLPRLAPRPSAAVPMGHTNEIIGPTVPEVSILFGQPPQDPQMQPQQPNHAHQESSPRAAPTFASWKKQMLPRVNFSPILATELGPRTAPSSNSPCSSKEYQVMPRDRNYASDAQQTTNHMNCNAGGYNAEPKQQAYQSRRLSSSSNADVLTICAGTQTDPFNPSPPRKSLPQVVYSDIDVSNLANKPEAISKASSTTGTQCDILTTNQAGRRLSPIMQDYIAEEEEPLPPPQARVIPQFPSPRPHPPIAQSTGYRANTPQAKRIPQLAKPNTEKSMVMNELALKYLRQPVDELMKDMRLGASPKSPNPEPLRPIDNIGHAQSPNDISNASYKYLKKYRLLPEEQLEPVCPQSPMAATAPSPHIQLDLENIRNQPKLL
